These are yes or no findings as the source states them, for the method shown. Binding seen in cells or lysates may run through a third protein. Some binding calls cover weakened binding; strength is not graded here. Where a sequence is shown, tags or fusion partners need not be part of it.
Target: T1, Myc-hMSH4 (human) (UniProt O15457)
T1 sequence: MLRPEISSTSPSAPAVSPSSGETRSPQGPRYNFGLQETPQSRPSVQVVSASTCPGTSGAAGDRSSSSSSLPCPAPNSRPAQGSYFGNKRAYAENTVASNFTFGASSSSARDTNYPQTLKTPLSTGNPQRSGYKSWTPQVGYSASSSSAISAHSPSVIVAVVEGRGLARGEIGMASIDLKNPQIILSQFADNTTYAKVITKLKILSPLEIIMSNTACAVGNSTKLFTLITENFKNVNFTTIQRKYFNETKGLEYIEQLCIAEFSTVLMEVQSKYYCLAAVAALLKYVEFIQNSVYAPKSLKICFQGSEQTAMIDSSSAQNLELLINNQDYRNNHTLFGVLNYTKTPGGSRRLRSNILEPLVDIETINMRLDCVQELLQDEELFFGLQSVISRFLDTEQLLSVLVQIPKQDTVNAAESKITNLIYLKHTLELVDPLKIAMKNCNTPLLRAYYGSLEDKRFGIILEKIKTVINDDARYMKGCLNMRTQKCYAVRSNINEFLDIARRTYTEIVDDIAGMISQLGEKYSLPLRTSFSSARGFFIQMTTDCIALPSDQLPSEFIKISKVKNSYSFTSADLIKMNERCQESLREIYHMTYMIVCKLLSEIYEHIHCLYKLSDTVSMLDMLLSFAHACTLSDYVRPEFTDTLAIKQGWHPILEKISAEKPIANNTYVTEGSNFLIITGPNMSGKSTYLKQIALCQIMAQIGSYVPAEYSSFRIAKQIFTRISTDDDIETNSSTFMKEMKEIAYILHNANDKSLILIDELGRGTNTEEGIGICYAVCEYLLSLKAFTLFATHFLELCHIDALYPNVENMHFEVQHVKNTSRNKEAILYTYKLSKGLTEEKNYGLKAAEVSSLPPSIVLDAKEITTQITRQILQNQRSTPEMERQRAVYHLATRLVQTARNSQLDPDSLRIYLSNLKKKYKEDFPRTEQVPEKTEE
Test: co-IP; lysates of 293T stable lines expressing hMSH5 or a variant, transiently transfected with Myc-hMSH4, collected 40 hours after transfection; precipitated with mouse α-Myc antibody at 4 °C for 2 hours, Protein A/rG agarose beads; blotted with α-hMSH5 and α-hMSH4

binding: binds
B1: f-hMSH5^P786S (protein, UniProt O43196 1-834)
chain: MASLGANPRRTPQGPRPGAASSGFPSPAPVPGPREAEEEEVEEEEELAEIHLCVLWNSGYLGIAYYDTSDSTIHFMPDAPDHESLKLLQRVLDEINPQSVVTSAKQDENMTRFLGKLASQEHREPKRPEIIFLPSVDFGLEISKQRLLSGNYSFIPDAMTATEKILFLSSIIPFDCLLTVRALGGLLKFLGRRRIGVELEDYNVSVPILGFKKFMLTHLVNIDQDTYSVLQIFKSESHPSVYKVASGLKEGLSLFGILNRCHCKWGEKLLRLWFTRPTHDLGELSSRLDVIQFFLLPQNLDMAQMLHRLLGHIKNVPLILKRMKLSHTKVSDWQVLYKTVYSALGLRDACRSLPQSIQLFRDIAQEFSDDLHHIASLIGKVVDFEGSLAENRFTVLPNIDPEIDEKKRRLMGLPSFLTEVARKELENLDSRIPSCSVIYIPLIGFLLSIPRLPSMVEASDFEINGLDFMFLSEEKLHYRSARTKELDALLGDLHCEIRDQETLLMYQLQCQVLARAAVLTRVLDLASRLDVLLALASAARDYGYSRPRYSPQVLGVRIQNGRHPLMELCARTFVPNSTECGGDKGRVKVITGPNSSGKSIYLKQVGLITFMALVGSFVPAEEAEIGAVDAIFTRIHSCESISLGLSTFMIDLNQVAKAVNNATAQSLVLIDEFGKGTNTVDGLALLAAVLRHWLARGPTCPHIFVATNFLSLVQLQLLPQGPLVQYLTMETCEDGNDLVFFYQVCEGVAKASHASHTAAQAGLPDKLVARGKEVSDLIRSGKPIKSVKDLLKKNQMENCQTLVDKFMKLDLEDPNLDLNVFMSQEVLPAATSIL

Reference: article PMC3762724
